The test deals with T1, human immune interferon (IFN-γ) receptor (human) (UniProt P15260).
T1 sequence (looked up): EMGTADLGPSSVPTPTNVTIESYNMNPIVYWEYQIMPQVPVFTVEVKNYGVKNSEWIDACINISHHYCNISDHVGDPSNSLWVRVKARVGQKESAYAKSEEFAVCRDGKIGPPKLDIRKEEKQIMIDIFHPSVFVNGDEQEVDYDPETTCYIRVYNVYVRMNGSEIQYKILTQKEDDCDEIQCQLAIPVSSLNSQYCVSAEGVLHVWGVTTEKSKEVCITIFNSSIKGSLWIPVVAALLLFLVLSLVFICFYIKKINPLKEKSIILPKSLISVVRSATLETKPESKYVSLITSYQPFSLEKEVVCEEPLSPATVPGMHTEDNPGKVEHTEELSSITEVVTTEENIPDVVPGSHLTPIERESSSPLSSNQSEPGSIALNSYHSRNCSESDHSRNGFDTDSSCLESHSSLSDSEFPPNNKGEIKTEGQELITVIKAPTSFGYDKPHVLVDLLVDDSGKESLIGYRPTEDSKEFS
Kind of test: binding of labeled ligand to CREF-Trans 6 clones expressing the human IFN-γ receptor.

Sequences of proteins named here, by UniProt entry; tags and fusion partners are left off. Residues count along the entry.
UniProt P01579, residues 24-166: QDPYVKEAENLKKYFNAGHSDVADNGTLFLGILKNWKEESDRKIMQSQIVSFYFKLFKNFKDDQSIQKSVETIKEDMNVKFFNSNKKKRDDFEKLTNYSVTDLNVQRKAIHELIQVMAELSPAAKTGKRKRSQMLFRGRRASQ

These are yes or no findings as the source states them, for the method shown. Some binding calls cover weakened binding; strength is not graded here.

With “labeled IFN-γ (from UniProt P01579 24-166) (ligand)”, the binding entry is on record as “binds”.

These data come from US6811972.
